Reference: the supplement of paper PMC12819154, “High-throughput peptide-centric local stability assay extends protein–ligand identification to membrane proteins, tissues and bacteria” (Nature Structural & Molecular Biology, 2025)
The other results are listed elsewhere or left out. Most values lie at the level of the controls, where differences are scatter.

Chains of the proteins cited; added tags and fusions are not shown. Lines headed by an entry give the natural chain unless they say otherwise; changes in a name come on top.
UniProt Q5T200: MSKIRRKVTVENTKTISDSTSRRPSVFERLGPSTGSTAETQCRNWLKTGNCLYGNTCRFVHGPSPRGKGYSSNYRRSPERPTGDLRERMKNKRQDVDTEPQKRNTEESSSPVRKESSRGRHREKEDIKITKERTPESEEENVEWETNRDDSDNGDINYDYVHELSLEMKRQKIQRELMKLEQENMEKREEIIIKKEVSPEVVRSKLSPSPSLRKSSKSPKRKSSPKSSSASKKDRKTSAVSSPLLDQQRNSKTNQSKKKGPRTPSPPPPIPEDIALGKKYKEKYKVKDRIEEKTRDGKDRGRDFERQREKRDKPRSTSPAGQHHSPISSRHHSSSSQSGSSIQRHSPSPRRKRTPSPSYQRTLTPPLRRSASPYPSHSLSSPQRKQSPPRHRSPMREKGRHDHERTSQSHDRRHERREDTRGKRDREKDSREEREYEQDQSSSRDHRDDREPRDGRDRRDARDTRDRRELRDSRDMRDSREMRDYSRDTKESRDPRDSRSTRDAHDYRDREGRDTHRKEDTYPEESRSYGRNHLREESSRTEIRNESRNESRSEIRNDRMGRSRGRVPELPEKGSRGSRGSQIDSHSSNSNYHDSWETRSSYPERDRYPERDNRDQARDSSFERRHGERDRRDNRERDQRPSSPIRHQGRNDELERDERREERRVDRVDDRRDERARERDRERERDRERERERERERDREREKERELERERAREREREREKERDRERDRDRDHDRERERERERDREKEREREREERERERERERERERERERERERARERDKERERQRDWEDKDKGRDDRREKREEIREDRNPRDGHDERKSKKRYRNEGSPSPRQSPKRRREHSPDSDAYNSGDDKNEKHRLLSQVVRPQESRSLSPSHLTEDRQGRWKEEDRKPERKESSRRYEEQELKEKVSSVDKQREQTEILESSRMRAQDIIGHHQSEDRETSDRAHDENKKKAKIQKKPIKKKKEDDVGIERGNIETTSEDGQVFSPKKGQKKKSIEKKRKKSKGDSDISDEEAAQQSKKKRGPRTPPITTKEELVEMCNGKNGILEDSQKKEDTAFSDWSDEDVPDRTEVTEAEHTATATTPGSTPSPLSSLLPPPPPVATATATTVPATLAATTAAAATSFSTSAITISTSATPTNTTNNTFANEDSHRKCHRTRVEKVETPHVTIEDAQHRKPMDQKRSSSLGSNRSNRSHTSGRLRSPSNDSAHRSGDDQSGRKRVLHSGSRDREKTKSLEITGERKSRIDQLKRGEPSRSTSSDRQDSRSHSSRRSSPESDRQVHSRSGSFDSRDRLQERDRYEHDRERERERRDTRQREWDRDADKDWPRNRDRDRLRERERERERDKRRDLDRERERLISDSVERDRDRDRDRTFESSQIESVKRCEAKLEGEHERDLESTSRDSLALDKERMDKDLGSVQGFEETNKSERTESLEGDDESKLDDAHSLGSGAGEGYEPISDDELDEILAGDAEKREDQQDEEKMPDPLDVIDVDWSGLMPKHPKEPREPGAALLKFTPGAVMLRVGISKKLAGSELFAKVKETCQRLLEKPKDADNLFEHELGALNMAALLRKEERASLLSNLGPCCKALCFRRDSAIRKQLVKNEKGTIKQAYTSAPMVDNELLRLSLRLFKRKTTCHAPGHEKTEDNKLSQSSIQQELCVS
UniProt Q5T4F4: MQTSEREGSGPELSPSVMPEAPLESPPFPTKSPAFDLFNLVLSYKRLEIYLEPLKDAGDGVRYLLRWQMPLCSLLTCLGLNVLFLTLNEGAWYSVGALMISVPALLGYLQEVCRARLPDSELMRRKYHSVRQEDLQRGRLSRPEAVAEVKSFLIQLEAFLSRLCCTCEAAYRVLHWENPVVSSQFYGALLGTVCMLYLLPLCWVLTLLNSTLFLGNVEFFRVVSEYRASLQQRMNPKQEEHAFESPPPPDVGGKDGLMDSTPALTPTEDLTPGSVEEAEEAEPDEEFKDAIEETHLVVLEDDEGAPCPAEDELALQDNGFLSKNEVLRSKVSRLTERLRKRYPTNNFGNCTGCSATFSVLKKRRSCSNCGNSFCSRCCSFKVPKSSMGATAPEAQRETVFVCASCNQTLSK
UniProt Q5TB30: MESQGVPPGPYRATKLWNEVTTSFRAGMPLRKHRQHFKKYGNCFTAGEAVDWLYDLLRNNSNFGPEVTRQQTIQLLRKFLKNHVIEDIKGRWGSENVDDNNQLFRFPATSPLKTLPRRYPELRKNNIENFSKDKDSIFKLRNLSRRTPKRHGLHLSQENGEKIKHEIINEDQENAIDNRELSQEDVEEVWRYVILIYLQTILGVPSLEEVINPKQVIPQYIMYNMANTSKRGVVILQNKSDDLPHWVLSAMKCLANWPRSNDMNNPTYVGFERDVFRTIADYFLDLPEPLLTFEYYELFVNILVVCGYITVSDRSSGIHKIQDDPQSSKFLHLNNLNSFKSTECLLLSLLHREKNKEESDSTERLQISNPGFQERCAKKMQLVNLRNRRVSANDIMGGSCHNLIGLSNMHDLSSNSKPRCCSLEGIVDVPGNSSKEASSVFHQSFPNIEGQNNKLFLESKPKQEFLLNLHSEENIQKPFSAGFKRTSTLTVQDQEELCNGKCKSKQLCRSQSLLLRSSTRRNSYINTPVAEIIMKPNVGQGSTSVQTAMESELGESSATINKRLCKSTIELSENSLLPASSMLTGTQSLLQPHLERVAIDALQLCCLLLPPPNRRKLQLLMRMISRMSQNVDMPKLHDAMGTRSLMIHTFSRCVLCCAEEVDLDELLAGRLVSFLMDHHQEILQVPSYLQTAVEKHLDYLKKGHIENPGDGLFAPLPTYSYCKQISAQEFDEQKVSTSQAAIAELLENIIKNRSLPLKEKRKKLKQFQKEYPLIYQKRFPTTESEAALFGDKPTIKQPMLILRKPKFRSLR
UniProt Q53T59: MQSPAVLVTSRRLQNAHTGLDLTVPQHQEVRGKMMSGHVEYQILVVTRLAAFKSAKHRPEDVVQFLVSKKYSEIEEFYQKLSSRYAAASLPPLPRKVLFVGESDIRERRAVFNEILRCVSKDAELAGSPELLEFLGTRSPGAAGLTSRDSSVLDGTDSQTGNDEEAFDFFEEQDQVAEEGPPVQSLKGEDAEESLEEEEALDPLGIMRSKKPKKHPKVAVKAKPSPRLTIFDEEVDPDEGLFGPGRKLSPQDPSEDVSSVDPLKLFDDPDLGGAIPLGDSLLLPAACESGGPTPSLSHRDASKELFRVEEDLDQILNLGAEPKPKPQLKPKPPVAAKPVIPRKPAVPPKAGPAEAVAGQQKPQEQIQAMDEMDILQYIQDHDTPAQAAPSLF
UniProt Q5T1R4, whole entry: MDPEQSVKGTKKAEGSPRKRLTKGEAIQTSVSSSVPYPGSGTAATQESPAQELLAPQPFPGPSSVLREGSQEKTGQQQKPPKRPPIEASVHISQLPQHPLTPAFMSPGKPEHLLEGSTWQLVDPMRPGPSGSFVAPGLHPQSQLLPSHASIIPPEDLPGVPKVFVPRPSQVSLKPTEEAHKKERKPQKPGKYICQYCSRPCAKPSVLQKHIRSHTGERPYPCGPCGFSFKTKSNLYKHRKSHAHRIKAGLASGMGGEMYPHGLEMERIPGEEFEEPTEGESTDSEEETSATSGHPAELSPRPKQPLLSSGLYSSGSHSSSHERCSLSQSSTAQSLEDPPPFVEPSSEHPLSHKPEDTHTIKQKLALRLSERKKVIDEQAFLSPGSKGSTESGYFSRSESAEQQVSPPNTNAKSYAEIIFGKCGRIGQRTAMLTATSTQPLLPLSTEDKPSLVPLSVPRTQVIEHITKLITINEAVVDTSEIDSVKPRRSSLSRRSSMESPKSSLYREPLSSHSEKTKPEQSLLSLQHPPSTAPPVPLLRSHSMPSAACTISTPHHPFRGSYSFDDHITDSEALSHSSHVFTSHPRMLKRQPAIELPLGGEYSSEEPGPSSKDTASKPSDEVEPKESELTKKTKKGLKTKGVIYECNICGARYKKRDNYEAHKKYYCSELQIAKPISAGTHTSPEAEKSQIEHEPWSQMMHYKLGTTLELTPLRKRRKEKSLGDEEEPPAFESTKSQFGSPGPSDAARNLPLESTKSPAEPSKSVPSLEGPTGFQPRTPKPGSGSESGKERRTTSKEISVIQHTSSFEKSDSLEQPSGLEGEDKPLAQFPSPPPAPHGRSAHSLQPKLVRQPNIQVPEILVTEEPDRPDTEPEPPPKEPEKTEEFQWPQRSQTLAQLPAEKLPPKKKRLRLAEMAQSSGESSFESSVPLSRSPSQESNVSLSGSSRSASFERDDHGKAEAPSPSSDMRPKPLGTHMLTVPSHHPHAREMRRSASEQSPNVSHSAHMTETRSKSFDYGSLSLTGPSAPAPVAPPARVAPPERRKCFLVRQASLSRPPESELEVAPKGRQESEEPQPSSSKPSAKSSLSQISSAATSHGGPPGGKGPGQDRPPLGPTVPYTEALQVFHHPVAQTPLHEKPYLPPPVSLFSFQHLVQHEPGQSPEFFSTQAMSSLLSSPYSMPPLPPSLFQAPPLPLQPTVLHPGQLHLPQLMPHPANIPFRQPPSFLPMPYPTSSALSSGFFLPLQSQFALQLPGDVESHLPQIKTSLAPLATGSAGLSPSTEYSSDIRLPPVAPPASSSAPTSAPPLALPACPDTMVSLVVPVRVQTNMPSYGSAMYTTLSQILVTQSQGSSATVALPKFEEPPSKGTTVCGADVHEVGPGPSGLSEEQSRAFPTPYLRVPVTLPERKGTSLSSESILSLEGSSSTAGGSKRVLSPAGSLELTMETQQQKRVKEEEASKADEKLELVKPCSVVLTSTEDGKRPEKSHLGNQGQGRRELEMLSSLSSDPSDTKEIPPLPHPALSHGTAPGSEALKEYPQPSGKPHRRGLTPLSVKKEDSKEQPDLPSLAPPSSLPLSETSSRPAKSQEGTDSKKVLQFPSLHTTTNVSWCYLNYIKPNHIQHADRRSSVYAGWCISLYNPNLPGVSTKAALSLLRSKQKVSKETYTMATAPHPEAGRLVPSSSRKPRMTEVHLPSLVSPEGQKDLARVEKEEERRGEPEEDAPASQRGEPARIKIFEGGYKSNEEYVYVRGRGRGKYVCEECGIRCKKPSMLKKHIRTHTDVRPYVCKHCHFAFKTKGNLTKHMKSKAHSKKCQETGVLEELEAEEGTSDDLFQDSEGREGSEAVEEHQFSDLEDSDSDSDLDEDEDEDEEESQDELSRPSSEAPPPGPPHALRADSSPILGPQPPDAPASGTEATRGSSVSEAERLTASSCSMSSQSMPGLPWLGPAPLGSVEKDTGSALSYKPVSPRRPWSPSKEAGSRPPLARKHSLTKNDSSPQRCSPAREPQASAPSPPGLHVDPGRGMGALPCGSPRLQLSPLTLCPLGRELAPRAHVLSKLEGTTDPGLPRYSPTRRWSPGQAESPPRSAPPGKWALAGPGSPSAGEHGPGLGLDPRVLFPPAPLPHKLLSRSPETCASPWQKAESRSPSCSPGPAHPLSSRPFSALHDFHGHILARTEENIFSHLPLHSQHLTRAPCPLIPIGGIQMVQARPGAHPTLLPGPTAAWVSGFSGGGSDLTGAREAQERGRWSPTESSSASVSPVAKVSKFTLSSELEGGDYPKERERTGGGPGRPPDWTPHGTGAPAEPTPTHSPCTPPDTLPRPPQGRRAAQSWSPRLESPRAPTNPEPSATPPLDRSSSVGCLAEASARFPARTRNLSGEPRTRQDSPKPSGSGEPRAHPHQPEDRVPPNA
UniProt Q53EV4: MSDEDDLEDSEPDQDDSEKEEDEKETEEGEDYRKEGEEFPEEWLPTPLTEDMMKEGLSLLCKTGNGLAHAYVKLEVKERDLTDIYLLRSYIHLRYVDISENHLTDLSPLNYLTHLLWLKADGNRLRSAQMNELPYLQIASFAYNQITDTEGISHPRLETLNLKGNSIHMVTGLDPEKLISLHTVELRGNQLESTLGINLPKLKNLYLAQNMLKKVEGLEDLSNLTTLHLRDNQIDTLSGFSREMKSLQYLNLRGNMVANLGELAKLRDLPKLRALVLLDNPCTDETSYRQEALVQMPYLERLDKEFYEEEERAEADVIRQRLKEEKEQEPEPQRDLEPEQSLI
UniProt Q49B96: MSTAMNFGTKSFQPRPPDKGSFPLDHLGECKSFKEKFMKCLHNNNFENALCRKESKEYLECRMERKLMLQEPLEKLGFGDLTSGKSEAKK
UniProt Q5U5X0: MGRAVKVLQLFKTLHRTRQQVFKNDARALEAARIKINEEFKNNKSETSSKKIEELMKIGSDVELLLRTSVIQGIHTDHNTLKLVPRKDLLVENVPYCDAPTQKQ
UniProt Q5U649: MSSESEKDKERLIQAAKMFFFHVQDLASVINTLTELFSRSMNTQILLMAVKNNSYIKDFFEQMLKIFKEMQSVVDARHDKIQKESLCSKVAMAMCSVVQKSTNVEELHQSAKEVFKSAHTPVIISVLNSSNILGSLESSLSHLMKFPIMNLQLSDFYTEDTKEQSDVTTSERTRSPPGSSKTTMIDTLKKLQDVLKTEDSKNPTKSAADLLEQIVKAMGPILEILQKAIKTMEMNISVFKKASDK

Compound: CN[C@@H]1C[C@H]2O[C@@](C)([C@@H]1OC)n1c3ccccc3c3c4c(c5c6ccccc6n2c5c31)C(=O)NC4 [staurosporine]
Experiment: log2 fold change of tryptic peptide abundance, ligand vs vehicle (limited proteolysis) (log2 ratio); higher = more trypsin-susceptible (destabilized)
Settings: ligand concentration: 20 uM; sample: K562 cleared lysate; digestion: 4 min, 22 C (HT-PELSA RT4min, Orbitrap Astral)

Target | log2 fold change
ZNF326 (peptide sequence: NYDAFGGPSTGR, peptide start residue: 189) (UniProt Q5BKZ1) | -0.513
UniProt Q5TF39 (peptide sequence: HSIIETSR, peptide start residue: 465) | -0.0843
ZC3H13 (peptide sequence: QAYTSAPMVDNELLR, peptide start residue: 1617) (UniProt Q5T200) | -0.911
RNF187 (peptide sequence: SLLQAVSELEK, peptide start residue: 213) (UniProt Q5TA31) | -0.351
YIF1B (peptide sequence: MHPAGLAAAAAGTPR, peptide start residue: 1) (UniProt Q5BJH7) | 0.0485
ZFYVE27 (peptide sequence: SSMGATAPEAQR, peptide start residue: 385) (UniProt Q5T4F4) | 0.0182
UniProt Q5TB30 (peptide sequence: NHVIEDIK, peptide start residue: 82) | 0.174
HS1BP3 (peptide sequence: HRPEDVVQFLVSK, peptide start residue: 57) (UniProt Q53T59) | -0.133
ANGEL2 (peptide sequence: NWEYICSHDKEK, peptide start residue: 134) (UniProt Q5VTE6) | -0.269
CMPK2 (peptide sequence: MENPGCHVVDASPSREK, peptide start residue: 417) (UniProt Q5EBM0) | 0.539
CEP78 (peptide sequence: QESFEGFIAR, peptide start residue: 642) (UniProt Q5JTW2) | -0.26
BCORL1 (peptide sequence: VELTAVGSGSNAR, peptide start residue: 60) (UniProt Q5H9F3) | -0.597
UniProt Q4AE62 (peptide sequence: QEYLGNSLR, peptide start residue: 233) | 0.208
DNTTIP2 (peptide sequence: QTSHLQAR, peptide start residue: 243) (UniProt Q5QJE6) | 0.432
UniProt Q5T1R4 (peptide sequence: SNEEYVYVR, peptide start residue: 2073) | -0.0402
UniProt Q5VW32 (peptide sequence: GPGPTVKPSGHLFFR, peptide start residue: 296) | 0.415
BRMS1L (peptide sequence: VKTEPPVKLEK, peptide start residue: 239) (UniProt Q5PSV4) | 0.022
CT47A1 (peptide sequence: LMVGPHAAAR, peptide start residue: 150) (UniProt Q5JQC4) | 0.0882
UniProt Q5TEU4 (peptide sequence: GSATVSFGELGK, peptide start residue: 322) | 0.00937
UniProt Q5CZA5 (peptide sequence: HDGLGTADSVCSR, peptide start residue: 158) | -0.156
UniProt Q53EV4 (peptide sequence: GNMVANLGELAK, peptide start residue: 254) | -0.0522
COX19 (peptide sequence: STAMNFGTK, peptide start residue: 2) (UniProt Q49B96) | -0.162
LYRM7 (peptide sequence: KIEELMK, peptide start residue: 51) (UniProt Q5U5X0) | 0.257
UniProt Q5T9C2 (peptide sequence: GGGTSSGGSSTNSLTGSRPPK, peptide start residue: 177) | -0.721
UniProt Q49AM3 (peptide sequence: EAAAVFQETLR, peptide start residue: 391) | 0.627
PLEKHG4 (peptide sequence: FAVCSFR, peptide start residue: 23) (UniProt Q58EX7) | -0.117
C12orf60 (peptide sequence: AMGPILEILQK, peptide start residue: 217) (UniProt Q5U649) | 0.317
ZNF618 (peptide sequence: WKPQAQR, peptide start residue: 438) (UniProt Q5T7W0) | 0.324
CROCC (peptide sequence: SLGEGAK, peptide start residue: 1204) (UniProt Q5TZA2) | 0.00532

Looked up above.
Value for YIF1B (peptide sequence: MHPAGLAAAAAGTPR, peptide start residue: 1) (UniProt Q5BJH7) under log2 fold change: 0.0485
Value for CEP78 (peptide sequence: QESFEGFIAR, peptide start residue: 642) (UniProt Q5JTW2) under log2 fold change: -0.26
